Earlier results in patent publication US8679832B2, “Detection of protein translocation by beta-galactosidase reporter fragment complementation” (The Board of Trustees of the Leland Stanford Junior …, priority 2004, dated 2014).
For at least one compound, name, drawing or mass did not settle the structure.

Target: T1, C1A domain (Homo sapiens, UniProt P05129)
T1 construct: The translocation of the C1A domain in response to PMA stimulation has been extensively characterized by fusion to GFP
Details: C1A-GFP fluorescence methods, reported; cited from earlier work

Structure (SMILES): CCCCCCCCCCCCCC(=O)O[C@@H]1[C@@H](C)[C@@]2(O)[C@@H](C=C(CO)C[C@]3(O)C(=O)C(C)=C[C@@H]23)[C@@H]2C(C)(C)[C@]12OC(C)=O [PMA]
- lowest dose of PMA detected: 10 and 100
